This experiment concerns the target KLF6 (human (endogenous in HCT15-FR)) (UniProt Q99612). Kind of experiment: affinity purification with mass spectrometry; immunoprecipitation followed by mass spectrometry (IP-MS); bait named as KLF6 only in the discussion.

The chains behind the UniProt entries cited, without tags or fusion partners.
UniProt Q99612: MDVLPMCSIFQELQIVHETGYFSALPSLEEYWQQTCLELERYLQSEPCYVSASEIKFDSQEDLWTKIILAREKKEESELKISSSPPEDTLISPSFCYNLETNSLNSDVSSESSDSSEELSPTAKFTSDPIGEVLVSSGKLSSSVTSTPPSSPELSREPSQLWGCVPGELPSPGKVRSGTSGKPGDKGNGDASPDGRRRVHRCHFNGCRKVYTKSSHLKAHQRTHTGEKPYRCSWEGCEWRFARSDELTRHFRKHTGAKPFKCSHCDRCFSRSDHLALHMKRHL
UniProt Q9Y6J9: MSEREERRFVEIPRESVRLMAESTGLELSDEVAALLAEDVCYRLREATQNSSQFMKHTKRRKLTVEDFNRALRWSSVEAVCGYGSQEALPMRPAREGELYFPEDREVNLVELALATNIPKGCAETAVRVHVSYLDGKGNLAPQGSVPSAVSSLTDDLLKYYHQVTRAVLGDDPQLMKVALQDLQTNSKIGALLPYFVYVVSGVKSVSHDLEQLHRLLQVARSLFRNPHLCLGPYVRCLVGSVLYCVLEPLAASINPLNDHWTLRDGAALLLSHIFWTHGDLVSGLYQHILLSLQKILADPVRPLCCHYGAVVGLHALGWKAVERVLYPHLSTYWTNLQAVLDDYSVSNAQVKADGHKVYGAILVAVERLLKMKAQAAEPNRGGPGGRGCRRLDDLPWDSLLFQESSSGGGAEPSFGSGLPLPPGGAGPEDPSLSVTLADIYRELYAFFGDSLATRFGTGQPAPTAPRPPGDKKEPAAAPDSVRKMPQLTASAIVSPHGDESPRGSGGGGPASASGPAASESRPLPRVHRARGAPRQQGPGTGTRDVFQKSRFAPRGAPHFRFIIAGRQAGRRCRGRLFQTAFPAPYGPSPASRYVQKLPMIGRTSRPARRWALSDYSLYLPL

These are yes or no findings as the source states them, for the method shown. Binding seen in cells or lysates may run through a third protein. These calls come from enrichment with a bait or labelling near it, and not all partners need be listed.

For one substance, binding results are on record in PMC11958781.

On to TAF6L (from UniProt Q9Y6J9 1-622), for which the binding result was “binds”.
